These are yes or no findings as the source states them, for the method shown. Binding seen in cells or lysates may run through a third protein. Some results given as binding are weak or reduced against the parent protein; the word gives no strength.
Biological target: T1, APC-stimulated-exchange-factor (Asef)2 (human) (UniProt Q96N96)
T1 sequence (looked up): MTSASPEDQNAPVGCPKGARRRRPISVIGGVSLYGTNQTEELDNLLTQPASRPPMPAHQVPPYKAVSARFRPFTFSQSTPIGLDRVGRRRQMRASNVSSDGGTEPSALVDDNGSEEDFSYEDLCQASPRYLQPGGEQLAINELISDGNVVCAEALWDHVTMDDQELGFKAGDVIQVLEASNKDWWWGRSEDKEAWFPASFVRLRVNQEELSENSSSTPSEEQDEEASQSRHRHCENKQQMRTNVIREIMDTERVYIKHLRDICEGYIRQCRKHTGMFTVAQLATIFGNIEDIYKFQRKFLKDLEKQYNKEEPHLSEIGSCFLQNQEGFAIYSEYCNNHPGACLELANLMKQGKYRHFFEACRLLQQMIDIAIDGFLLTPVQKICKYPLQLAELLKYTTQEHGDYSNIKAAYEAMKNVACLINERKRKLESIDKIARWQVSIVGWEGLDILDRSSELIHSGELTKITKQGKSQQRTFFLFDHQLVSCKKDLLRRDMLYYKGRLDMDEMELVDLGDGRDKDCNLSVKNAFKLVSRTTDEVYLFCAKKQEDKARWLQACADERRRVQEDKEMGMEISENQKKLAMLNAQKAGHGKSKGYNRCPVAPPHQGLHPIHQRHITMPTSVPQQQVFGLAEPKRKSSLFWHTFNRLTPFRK
Assay: co-immunoprecipitation from HUVEC lysates (anti-APC IP, anti-Asef2 blot)

Protein sequences, listed by entry. Tags and fused reporters are not part of them. Residues count along the entry.
UniProt P25054, residues 2-2843: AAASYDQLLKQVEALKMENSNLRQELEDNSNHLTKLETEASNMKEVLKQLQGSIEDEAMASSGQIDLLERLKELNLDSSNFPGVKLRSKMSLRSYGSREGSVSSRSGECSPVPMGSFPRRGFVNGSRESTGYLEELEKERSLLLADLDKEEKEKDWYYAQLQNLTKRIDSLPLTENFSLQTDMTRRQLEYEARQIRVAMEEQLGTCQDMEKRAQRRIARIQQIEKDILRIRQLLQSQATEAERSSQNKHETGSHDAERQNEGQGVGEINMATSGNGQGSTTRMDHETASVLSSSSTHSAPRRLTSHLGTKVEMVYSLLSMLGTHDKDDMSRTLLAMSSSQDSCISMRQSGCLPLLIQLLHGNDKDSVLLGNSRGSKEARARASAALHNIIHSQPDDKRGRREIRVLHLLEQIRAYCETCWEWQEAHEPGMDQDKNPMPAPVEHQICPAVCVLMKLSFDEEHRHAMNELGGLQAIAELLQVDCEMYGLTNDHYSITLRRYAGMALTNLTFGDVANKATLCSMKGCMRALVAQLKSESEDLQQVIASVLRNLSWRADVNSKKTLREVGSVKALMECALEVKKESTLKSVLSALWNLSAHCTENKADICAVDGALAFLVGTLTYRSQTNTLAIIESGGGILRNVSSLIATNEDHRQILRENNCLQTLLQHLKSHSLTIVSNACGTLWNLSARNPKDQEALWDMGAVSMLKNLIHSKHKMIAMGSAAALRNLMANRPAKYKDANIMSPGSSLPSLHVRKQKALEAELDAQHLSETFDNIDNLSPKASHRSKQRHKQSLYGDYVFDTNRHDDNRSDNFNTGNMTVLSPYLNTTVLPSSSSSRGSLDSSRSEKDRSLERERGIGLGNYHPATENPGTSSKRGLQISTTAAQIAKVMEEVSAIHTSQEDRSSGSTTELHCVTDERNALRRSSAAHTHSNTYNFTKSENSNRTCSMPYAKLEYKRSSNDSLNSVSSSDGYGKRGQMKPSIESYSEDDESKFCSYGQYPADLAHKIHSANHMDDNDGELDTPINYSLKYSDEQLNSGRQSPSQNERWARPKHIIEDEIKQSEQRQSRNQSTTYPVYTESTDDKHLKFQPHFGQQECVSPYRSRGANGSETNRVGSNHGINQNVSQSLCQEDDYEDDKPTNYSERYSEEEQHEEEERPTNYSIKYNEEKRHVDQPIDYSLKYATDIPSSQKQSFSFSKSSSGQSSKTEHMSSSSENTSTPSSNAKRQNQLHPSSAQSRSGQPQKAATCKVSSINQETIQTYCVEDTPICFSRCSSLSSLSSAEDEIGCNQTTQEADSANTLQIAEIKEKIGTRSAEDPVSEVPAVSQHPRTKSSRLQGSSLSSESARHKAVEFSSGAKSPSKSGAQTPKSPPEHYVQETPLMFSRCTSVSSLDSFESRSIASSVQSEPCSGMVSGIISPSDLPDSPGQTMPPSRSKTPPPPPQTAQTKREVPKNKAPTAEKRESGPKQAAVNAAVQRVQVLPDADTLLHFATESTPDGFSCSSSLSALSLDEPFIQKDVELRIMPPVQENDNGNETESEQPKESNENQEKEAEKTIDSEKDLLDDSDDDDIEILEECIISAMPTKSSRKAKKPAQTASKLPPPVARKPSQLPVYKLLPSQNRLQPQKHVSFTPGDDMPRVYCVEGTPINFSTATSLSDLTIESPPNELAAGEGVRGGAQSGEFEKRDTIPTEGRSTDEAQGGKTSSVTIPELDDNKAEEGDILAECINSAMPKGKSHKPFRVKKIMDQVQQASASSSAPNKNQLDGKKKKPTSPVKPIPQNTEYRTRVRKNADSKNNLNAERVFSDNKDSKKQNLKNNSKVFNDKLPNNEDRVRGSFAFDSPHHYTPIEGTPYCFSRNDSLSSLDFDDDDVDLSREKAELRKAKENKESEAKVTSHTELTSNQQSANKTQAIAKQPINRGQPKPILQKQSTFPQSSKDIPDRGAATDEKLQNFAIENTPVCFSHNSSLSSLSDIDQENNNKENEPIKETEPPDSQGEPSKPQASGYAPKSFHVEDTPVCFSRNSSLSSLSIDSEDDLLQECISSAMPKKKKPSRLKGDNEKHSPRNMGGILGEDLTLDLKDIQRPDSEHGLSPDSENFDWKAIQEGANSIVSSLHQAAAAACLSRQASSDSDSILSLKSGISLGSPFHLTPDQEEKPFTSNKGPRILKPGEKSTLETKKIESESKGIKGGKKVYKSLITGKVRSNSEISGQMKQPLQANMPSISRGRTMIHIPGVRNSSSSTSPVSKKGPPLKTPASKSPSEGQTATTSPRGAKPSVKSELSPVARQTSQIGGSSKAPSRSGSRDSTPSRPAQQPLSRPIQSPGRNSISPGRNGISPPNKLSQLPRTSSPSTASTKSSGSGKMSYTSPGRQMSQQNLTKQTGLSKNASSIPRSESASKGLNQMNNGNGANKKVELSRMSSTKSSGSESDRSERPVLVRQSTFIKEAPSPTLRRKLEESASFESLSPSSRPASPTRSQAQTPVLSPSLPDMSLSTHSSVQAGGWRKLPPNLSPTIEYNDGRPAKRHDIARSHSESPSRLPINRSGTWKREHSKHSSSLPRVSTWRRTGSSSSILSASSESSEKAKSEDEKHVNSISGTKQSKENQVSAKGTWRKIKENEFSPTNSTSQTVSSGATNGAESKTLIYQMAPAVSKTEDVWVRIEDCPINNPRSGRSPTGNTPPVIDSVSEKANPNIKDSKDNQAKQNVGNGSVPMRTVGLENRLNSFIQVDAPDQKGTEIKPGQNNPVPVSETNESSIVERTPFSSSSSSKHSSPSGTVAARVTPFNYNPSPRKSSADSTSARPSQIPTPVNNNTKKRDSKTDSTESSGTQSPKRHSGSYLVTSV

Substance: Adenomatous Polyposis Coli (APC) (from UniProt P25054 2-2843)
- binding: binds

From patent publication US20110223184A1
